Drawing on publication PMC9950529, this text covers binding for 3 molecules.

The target in test [1] is CK1δ (mouse (endogenous in mouse liver)) (UniProt Q9DC28). Description: SEC; Superose 6 Increase 10/300 GL, room temperature, 10 mM Hepes pH 7.9, 200 mM KCl, 1.5 mM MgCl2, 0.1 mM EGTA, 0.1 mM EDTA, 20% glycerol; mouse liver nuclear extracts of ZT0, ZT2, ZT6, ZT12, ZT16, ZT19 after ultracentrifugation; fractions analysed by Western blot. In general terms: Size exclusion chromatography separates by hydrodynamic size, large species first.

For test [2] the target is unchanged. Description: co-sedimentation; 10-30% glycerol gradient (25 mM Tris pH 8.0, 100 mM NaCl, 2 mM DTT), SW60 54,000 rpm, 6 h, 4 °C; mouse liver nuclear extracts of ZT0, ZT2, ZT6, ZT12, ZT16, ZT19 mixed with reference proteins; fractions analysed by Western blot. Background: Immunoblotting shows a protein as a band on a membrane.
Test [3] concerns the target CK1δ (mouse (endogenous in mouse liver)), Q9DC28. Description: co-sedimentation; as the glycerol gradient, extract of ZT6, when PER is undetected. The following applies: remark: other sources report otherwise.
For test [4], the target named is CRY1 (mouse (endogenous in mouse liver)) (UniProt P97784). The experiment in a line: SEC; as the gel filtration, extract of ZT6, in the apparent absence of detectable PER.
Test [5] shares this target. Description: co-sedimentation; as the glycerol gradient, extract of ZT6, when PER is undetected.

No constants are given. Whether binding was seen depends on the method and setting. For some assays here: Binding seen in cells or lysates may run through a third protein.

B1: CLOCK (protein, UniProt O08785 1-855)
chain: MVFTVSCSKMSSIVDRDDSSIFDGLVEEDDKDKAKRVSRNKSEKKRRDQFNVLIKELGSMLPGNARKMDKSTVLQKSIDFLRKHKETTAQSDASEIRQDWKPTFLSNEEFTQLMLEALDGFFLAIMTDGSIIYVSESVTSLLEHLPSDLVDQSIFNFIPEGEHSEVYKILSTHLLESDSLTPEYLKSKNQLEFCCHMLRGTIDPKEPSTYEYVRFIGNFKSLTSVSTSTHNGFEGTIQRTHRPSYEDRVCFVATVRLATPQFIKEMCTVEEPNEEFTSRHSLEWKFLFLDHRAPPIIGYLPFEVLGTSGYDYYHVDDLENLAKCHEHLMQYGKGKSCYYRFLTKGQQWIWLQTHYYITYHQWNSRPEFIVCTHTVVSYAEVRAERRRELGIEESLPETAADKSQDSGSDNRINTVSLKEALERFDHSPTPSASSRSSRKSSHTAVSDPSSTPTKIPTDTSTPPRQHLPAHEKMTQRRSSFSSQSINSQSVGPSLTQPAMSQAANLPIPQGMSQFQFSAQLGAMQHLKDQLEQRTRMIEANIHRQQEELRKIQEQLQMVHGQGLQMFLQQSNPGLNFGSVQLSSGNSNIQQLTPVNMQGQVVPANQVQSGHISTGQHMIQQQTLQSTSTQQSQQSVMSGHSQQTSLPSQTPSTLTAPLYNTMVISQPAAGSMVQIPSSMPQNSTQSATVTTFTQDRQIRFSQGQQLVTKLVTAPVACGAVMVPSTMLMGQVVTAYPTFATQQQQAQTLSVTQQQQQQQQQPPQQQQQQQQSSQEQQLPSVQQPAQAQLGQPPQQFLQTSRLLHGNPSTQLILSAAFPLQQSTFPPSHHQQHQPQQQQQLPRHRTDSLTDPSKVQPQ
Consider B1, for which the binding result in test [1] and in test [2] was “no binding” each time.

B2: CK1δ, Q9DC28 1-415 (enzyme)
chain: MELRVGNRYRLGRKIGSGSFGDIYLGTDIAAGEEVAIKLECVKTKHPQLHIESKIYKMMQGGVGIPTIRWCGAEGDYNVMVMELLGPSLEDLFNFCSRKFSLKTVLLLADQMISRIEYIHSKNFIHRDVKPDNFLMGLGKKGNLVYIIDFGLAKKYRDARTHQHIPYRENKNLTGTARYASINTHLGIEQSRRDDLESLGYVLMYFNLGSLPWQGLKAATKRQKYERISEKKMSTPIEVLCKGYPSEFATYLNFCRSLRFDDKPDYSYLRQLFRNLFHRQGFSYDYVFDWNMLKFGASRAADDAERERRDREERLRHSRNPATRGLPSTASGRLRGTQEVAPPTPLTPTSHTANTSPRPVSGMERERKVSMRLHRGAPVNVSSSDLTGRQDTSRMSTSQIPGRVASSGLQSVVHR
For the molecule B2, in test [3], the binding entry is on record as “no binding”.

B3: CRY1 (protein, UniProt P97784 1-606)
chain: MGVNAVHWFRKGLRLHDNPALKECIQGADTIRCVYILDPWFAGSSNVGINRWRFLLQCLEDLDANLRKLNSRLFVIRGQPADVFPRLFKEWNITKLSIEYDSEPFGKERDAAIKKLATEAGVEVIVRISHTLYDLDKIIELNGGQPPLTYKRFQTLVSKMEPLEMPADTITSDVIGKCMTPLSDDHDEKYGVPSLEELGFDTDGLSSAVWPGGETEALTRLERHLERKAWVANFERPRMNANSLLASPTGLSPYLRFGCLSCRLFYFKLTDLYKKVKKNSSPPLSLYGQLLWREFFYTAATNNPRFDKMEGNPICVQIPWDKNPEALAKWAEGRTGFPWIDAIMTQLRQEGWIHHLARHAVACFLTRGDLWISWEEGMKVFEELLLDADWSINAGSWMWLSCSSFFQQFFHCYCPVGFGRRTDPNGDYIRRYLPVLRGFPAKYIYDPWNAPEGIQKVAKCLIGVNYPKPMVNHAEASRLNIERMKQIYQQLSRYRGLGLLASVPSNSNGNGGLMGYAPGENVPSCSSSGNGGLMGYAPGENVPSCSGGNCSQGSGILHYAHGDSQQTHSLKQGRSSAGTGLSSGKRPSQEEDAQSVGPKVQRQSSN
For B3, the binding entry in test [4] and in test [5] was “no binding” throughout.
